PubChem BioAssay AID1053208 | Peter MacCallum Cancer Centre – 2014

- Purpose: 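Synthetic lethal interactions between gene loss and doxorubicin in osteosarcoma cells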 (primary screen)
- Cell system: mouse osteosarcoma cells, early-passage culture from an engineered mouse model of fibroblastic bone tumour
- Reagents: siRNA pool against mouse genes, 40 nM
- Timing: about 120 h (48 h before drug, then 72 h with drug)
- Challenge: doxorubicin 100 nM for 72 h, roughly 30-40% inhibitory dose
- Read-out: 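Luminescent ATP signal taken as viability with or without 100 nM doxorubicin for 72 h; mean of two wells set against non-targeting siRNA and turned into robust z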
- Scale: viability z-score with doxorubicin: higher = more viable cells under doxorubicin; viability z-score without drug: higher = more viable cells with knock-down alone
- Hit rule: 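Called active if knock-down leaves viability unchanged without drug (z within -2 to 2) but lowers it with doxorubicin (z at or under -2)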
Shown is one part, drawn at random, of about 17,000 reagents tested. Of all reagents, 788 (4.7%) are marked active. 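Calls rest on z-score classes alone; an extra cut-off of viability at most 70% of control was not applied to them.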 Unmarked entries are inactive. The numbers tell different reagents against one gene apart. Some reagents were tested in more than one well and are listed for each. Further read-outs or replicates are left out here. Reagent sequences are not shown.

no.	gene symbol	reagent no.	combined z-score class	viability z-score with doxorubicin	viability z-score without drug
1	Zfp108	1	low cell count with doxorubicin only (active)	-2.02	-0.67
2	Cck	1	no change with or without drug	0.45	-0.34
3	Or6c211	1	no change with or without drug	-1.57	0.51
4	Mnt	1	no change with or without drug	0.9	-0.51
5	Efnb2	1	no change with or without drug	0.45	1.52
6	A530095I07Rik	1	no change with or without drug	0.56	-0.51
7	Maf1	1	no change with or without drug	-1.46	0
8	Gnl1	1	no change with or without drug	-1.57	-0.51
9	Nr3c2	1	no change with or without drug	-0.9	-0.17
10	Man1c1	1	no change with or without drug	0.11	0.51
11	Slc25a19	1	no change with or without drug	-0.67	0.84
12	Emilin1	1	no change with or without drug	0.79	1.18
13	Nat8f4	1	no change with or without drug	1.12	0.84
14	Copg2	1	no change with or without drug	1.12	0.17
15	Or52n5	1	no change with or without drug	0.79	0.84
16	Gabpa	1	low cell count with doxorubicin only (active)	-3.15	-1.18
17	Mtg1	1	no change with or without drug	1.35	1.18
18	Aga	1	no change with or without drug	0.56	0.84
19	Xkr8	1	high cell count without drug only	1.35	3.04
20	Tex18	1	no change with or without drug	1.57	1.85
21	Usp5	1	low cell count with and without drug	-2.47	-2.02
22	Pramel3a	1	no change with or without drug	1.35	-1.85
23	Ndc1	1	no change with or without drug	0.22	-0.84
24	Cox11	1	no change with or without drug	-0.56	0.84
25	Arhgap10	1	no change with or without drug	0.11	-1.01
26	Sulf1	1	no change with or without drug	-0.45	0.17
27	Unc93b1	1	no change with or without drug	-1.57	-0.51
28	Strada	1	no change with or without drug	0.22	-1.18
29	Strada	1	no change with or without drug	-0.45	-0.17
30	Plk5	1	no change with or without drug	-1.8	0

Next part, starting with the last 3 of the part before.
no.	gene symbol	reagent no.	combined z-score class	viability z-score with doxorubicin	viability z-score without drug
28	Strada	1	no change with or without drug	0.22	-1.18
29	Strada	1	no change with or without drug	-0.45	-0.17
30	Plk5	1	no change with or without drug	-1.8	0
31	Cd300ld3	1	no change with or without drug	-0.11	-0.17
32	Ano9	1	no change with or without drug	0	-0.34
33	Bglap	1	no change with or without drug	0.34	-0.51
34	Jam2	1	no change with or without drug	-1.91	0.51
35	Zdhhc20	1	no change with or without drug	-0.9	0.34
36	Or10d1	1	no change with or without drug	-1.35	-1.52
37	Grk6	1	no change with or without drug	1.57	1.18
38	Opn1mw	1	no change with or without drug	1.69	-0.51
39	Hdac7	1	no change with or without drug	-1.91	1.85
40	Prl2a1	1	no change with or without drug	0.45	0.51
41	Lrriq3	1	no change with or without drug	-0.67	-0.17
42	5031404N07	1	no change with or without drug	-0.67	1.35
43	Actr8	1	no change with or without drug	0.22	1.18
44	Ddit4	1	no change with or without drug	1.57	1.52
45	Tmem44	1	no change with or without drug	-0.45	-0.51
46	Mgat4a	1	no change with or without drug	-0.9	0.67
47	Or6z1	1	no change with or without drug	0.56	-0.34
48	Scp2	1	no change with or without drug	-1.12	-0.84
49	Strbp	1	no change with or without drug	-0.45	-0.17
50	Strbp	2	no change with or without drug	1.46	1.52
51	Daw1	1	no change with or without drug	-0.45	0
52	L3mbtl3	1	no change with or without drug	-0.34	-0.17
53	Prxl2c	1	low cell count with doxorubicin only (active)	-3.6	-1.01
54	Hmgn2	1	no change with or without drug	-0.45	-1.52
55	Tgfb2	1	no change with or without drug	1.01	0.34
56	Pou5f1	1	high cell count with and without drug	2.25	2.19
57	Arhgap6	1	no change with or without drug	-1.35	-0.17
58	Atrip	1	low cell count without drug only	-0.22	-2.19
59	Tssk3	1	no change with or without drug	0.56	0.17
60	Tssk3	2	no change with or without drug	-0.11	0.34
61	Srsf19	1	low cell count with doxorubicin only (active)	-2.02	-0.51
62	Gm10128	1	no change with or without drug	1.57	0.84
63	Ankrd33b	1	no change with or without drug	0.45	0.51
